In publication PMC5105168:
Results are given in words; binding and its absence hold for the method and conditions named. For some assays here: In cells and extracts the contact can be indirect. Some results given as binding are weak or reduced against the parent protein; the word gives no strength. For some assays here: Tags and fused reporters may be left off the sequences shown.

Amino acid sequences for entries named in this document (tags omitted). A change or cut given only in a name is not applied to a line headed by its entry.
UniProt O43823: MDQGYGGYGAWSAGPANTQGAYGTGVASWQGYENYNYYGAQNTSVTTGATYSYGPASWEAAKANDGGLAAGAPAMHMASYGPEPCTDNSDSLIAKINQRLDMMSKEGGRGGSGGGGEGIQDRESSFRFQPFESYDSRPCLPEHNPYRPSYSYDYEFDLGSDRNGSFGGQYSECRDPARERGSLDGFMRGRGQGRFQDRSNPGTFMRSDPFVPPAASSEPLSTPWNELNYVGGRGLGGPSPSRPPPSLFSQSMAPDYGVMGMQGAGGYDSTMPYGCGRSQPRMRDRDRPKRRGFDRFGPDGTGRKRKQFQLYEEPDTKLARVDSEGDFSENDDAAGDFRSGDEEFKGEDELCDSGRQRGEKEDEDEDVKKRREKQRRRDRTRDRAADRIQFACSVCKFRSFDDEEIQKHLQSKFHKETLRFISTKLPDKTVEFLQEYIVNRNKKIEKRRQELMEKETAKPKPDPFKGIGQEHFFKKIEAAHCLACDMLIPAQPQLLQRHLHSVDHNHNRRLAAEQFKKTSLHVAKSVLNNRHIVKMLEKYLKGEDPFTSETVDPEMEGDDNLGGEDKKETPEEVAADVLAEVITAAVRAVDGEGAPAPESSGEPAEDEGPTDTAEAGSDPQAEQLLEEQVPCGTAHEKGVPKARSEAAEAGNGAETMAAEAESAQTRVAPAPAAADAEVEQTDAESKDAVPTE

What was measured:
[1] = target: MBP fused to AKAP95 wild type (human) (UniProt O43823); assay: pull-down; 293T cells co-transfected with MBP-tagged and FH-tagged AKAP95 constructs, precipitated by amylose resin, immunoblot
[2] = target: T1, GST-hnRNP M (human (cDNA from 293 cells)) (UniProt P52272); assay: pull-down; GST fusions bound to glutathione resin, purified F-AKAP95 proteins in solution, BC200, 0.1% NP40, immunoblot; both purified
T1 sequence: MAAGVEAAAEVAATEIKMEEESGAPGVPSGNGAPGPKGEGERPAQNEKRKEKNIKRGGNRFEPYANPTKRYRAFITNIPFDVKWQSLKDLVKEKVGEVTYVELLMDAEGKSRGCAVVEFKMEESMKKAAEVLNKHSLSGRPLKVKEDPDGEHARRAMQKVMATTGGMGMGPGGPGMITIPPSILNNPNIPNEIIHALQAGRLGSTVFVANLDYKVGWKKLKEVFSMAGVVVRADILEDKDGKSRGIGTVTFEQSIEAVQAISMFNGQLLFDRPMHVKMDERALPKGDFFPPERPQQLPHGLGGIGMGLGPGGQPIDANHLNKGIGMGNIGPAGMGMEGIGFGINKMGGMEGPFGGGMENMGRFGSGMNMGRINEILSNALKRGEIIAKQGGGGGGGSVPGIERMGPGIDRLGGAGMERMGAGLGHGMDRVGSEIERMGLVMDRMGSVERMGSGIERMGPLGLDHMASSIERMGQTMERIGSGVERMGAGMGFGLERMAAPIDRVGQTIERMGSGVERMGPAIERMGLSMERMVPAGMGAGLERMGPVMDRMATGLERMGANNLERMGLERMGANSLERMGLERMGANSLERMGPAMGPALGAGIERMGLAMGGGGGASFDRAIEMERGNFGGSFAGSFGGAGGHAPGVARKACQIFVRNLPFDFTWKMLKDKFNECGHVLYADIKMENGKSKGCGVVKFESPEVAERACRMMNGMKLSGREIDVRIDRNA

[3] = target: T2, purified His-tagged hnRNP F (UniProt P52597); assay: pull-down; purified His-hnRNP F bound to Ni resin, purified F-AKAP95 proteins in solution, BC200, 0.1% NP40, immunoblot; both purified
T2 sequence: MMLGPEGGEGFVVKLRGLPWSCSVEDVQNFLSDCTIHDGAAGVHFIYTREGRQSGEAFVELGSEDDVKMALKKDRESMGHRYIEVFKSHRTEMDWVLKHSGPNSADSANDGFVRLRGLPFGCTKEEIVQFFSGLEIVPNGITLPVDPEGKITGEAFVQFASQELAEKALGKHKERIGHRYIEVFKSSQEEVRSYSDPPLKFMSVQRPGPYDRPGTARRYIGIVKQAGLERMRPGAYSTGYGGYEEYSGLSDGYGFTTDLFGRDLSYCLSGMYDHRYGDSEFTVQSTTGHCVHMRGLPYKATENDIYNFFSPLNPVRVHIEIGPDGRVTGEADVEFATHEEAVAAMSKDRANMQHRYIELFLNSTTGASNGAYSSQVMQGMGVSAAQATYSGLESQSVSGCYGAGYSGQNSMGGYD

With “FLAG-HA-tagged AKAP95 (1–210) (from UniProt O43823 1-210) (domain or fragment)” the binding [1] was “binds”.

“FLAG-HA-tagged AKAP95 (101–692) (from UniProt O43823 101-692) (domain or fragment)” was tested, and the binding [1] was “binds”.

For “FLAG-HA-tagged full-length human AKAP95 (from UniProt O43823 1-692)”, the binding [1] was “binds”.

“purified Flag-tagged AKAP95 (from UniProt O43823 1-692)” was tested, and the binding [2] was “binds” and the binding [3] was “binds”.
